The values below come from patent US11542304B2 (BicycleTx Limited, priority 2018, dated 2023).

This series in a line: general procedure: Fmoc solid-phase peptide synthesis. As to conditions: late stage modification step.

Ac-A-CiIEEGQYCiiK(PYA)ADPY(Nle)Ciii-A: the “final purity (method not given)” value is reported as 90.5% and the step yield is recorded as 53.24%.

For the substance Ac-A-CiIEEGQYCiiFADPYK(PYA)Ciii-A, the “final purity (method not given)” value was determined as 92.0% and the step yield is given as 73.68%.

For the substance Ac-A-CiIEEGQYCiiFADK(PYA)Y(Nle)Ciii-A, the “final purity (method not given)” value is reported as 91.74% and the step yield came to 65.87%.

Consider Ac-A-CiIEEGQYCiiFADPY(Nle)Ciii-Dap(PYA), for which the “final purity (method not given)” value stood at 98% and the step yield is on record as 82.13%.

(PYA)-A-CiIEEGQYCiiFADPY(Nle)Ciii-A displayed a step yield of 69.96%.

Take (PYA)-A-CiIEEGQYCiiF[D-A]DPY[Nle]Ciii-A: the “final purity (method not given)” value is 90%.
